# Library screen at single concentrations

From ChEMBL document CHEMBL3988442, “University of Dundee, Small-Polar-MMV Screening Library” (2021).

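Cell assay of Leishmania donovani living inside macrophages; the read-out is not stated. Concentration: 30 µM. Higher reads as stronger inhibition (inferred: compounds with an IC50 in retests scored well above the rest). Size under these conditions: about 69,000 compounds, about 1,000 of them at 50% or above in at least one test.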

The filed quantity is “Percent Effect” (%).
How 0% and 100% were set is not recorded. Most values in the screen are low, and negative values occur.
The compounds are a random part of those screened.
Two or more numbers in one place are separate tests of the same structure; such repeats can differ widely.

For Cc1nnsc1CN(C)Cc1ccc(C(=O)Nc2sccc2C#N)cc1 the result was 27.1%. COCCN1CCC2(CC1)CC(NC(=O)CC1CC1)c1ccccc1O2.O=C(O)C(F)(F)F (configuration not stated) gave -12.69%. Result for O=C(O)C(F)(F)F.O=C(O)C(F)(F)F.O=C(O)C(F)(F)F.O=C(O)C(F)(F)F.[H][C@@]12CCCO[C@]1([H])[C@H](N(C)Cc1cccnc1)CN2Cc1nccn1C was 11.38%. For Cn1ccnc1CCNS(=O)(=O)c1ccc(Br)cc1 the result was 4.153%. For Cc1oc2c(c1C(=O)N1C[C@H](O)[C@]3(CCCO3)C1)CCCC2 the result was 16.91%. Result for CC(Nc1ccc(C#N)cc1F)c1cccc(S(N)(=O)=O)c1 (configuration not stated) was 15.67%.

O=C(NC1(C(=O)NC2CCCC2)CCCC1)c1ccc2[nH]ncc2c1 gave -39.64%. For Cc1nn(C)c2sc(C(=O)N3CCCC(n4ccnc4C)C3)cc12 (configuration not stated) the result was 29.39%. Result for Cc1cc(NC(=O)Cc2ccccc2O)c[nH]c1=O was 12.94%. For CC(=O)N1CCN(C(=O)NCc2csc(Br)c2)CC1 the result was 11.54%. CCC(CC)(CCO)CNC(=O)c1ccon1 read 7.917%. Cn1c(CN2CC[C@](C)(O)C(C)(C)C2)cc2ccccc21 read 17.29%.

CCC(CNS(C)(=O)=O)Oc1ccccc1C (configuration not stated) gave -8.761%. CC(C)c1nccn1Cc1cc(C(=O)NCC(C)n2ccnc2)n[nH]1 (configuration not stated) read 48.24% and -12.49%. CS(=O)(=O)NCCC1CCCCN1C(=O)NCCc1ccccc1 (configuration not stated) read 20.36%. COc1nccnc1-c1cc(NC2CCCC2)nc2[nH]ccc12 gave 46.38%. For CCCn1ncc(C(=O)NC2CCN(C3CCOCC3)CC2)c1C the result was 27.87%. Result for CC(=O)NCc1noc2c1CN(Cc1cnn(C)c1)CC2 was 24.83%.

Result for Cc1cc(C)n(C2CN(Cc3noc(C4CC4)n3)C2)n1 was 17.07%. With COCCN(CCOC)C(=O)Nc1cc(C(F)(F)F)c[nH]c1=O the screen gave -8.64%. Result for COCCN(C)Cc1cn(C)nc1-c1ccc2c(c1)OCCO2 was 30.17%. Result for Cl.c1cc(NCc2ccncc2)nc(C2CCCN2)c1 (configuration not stated) was 32.87%. CC(=O)N(C)CC(=O)NC1(c2ccc(Br)cc2)CC1 read 4.818%. With CN1C(=O)CO[C@H](c2ccc(NC(=O)Nc3ccccc3)cc2)[C@H]1CO the screen gave 12.44%.

Result for Cc1nc(N(C)C/C=C/c2ccccc2)c2cnn(C)c2n1 was 9.111%. Result for [H][C@]12CC[C@]([H])(CN(S(=O)(=O)N(C)C)C1)N(C(=O)c1cnc(SC)nc1)C2 was 32.96%. Result for COc1ccc(Cc2nnc3n2N=C(C(C)(C)C)CS3)cc1 was -0.09481%. For Cc1nc(C)n(C2CCCN(C(=O)c3cn4c(C)cccc4n3)C2)n1 (configuration not stated) the result was 0.8359%. Cc1nc(C)c(C(=O)NCCNC(=O)Cc2cccc(F)c2)s1 read 17.84%. For O=C(CO)N1CCC(c2cncc(-c3cccc(Cl)c3)n2)CC1 the result was -19.47%.

CCN(Cc1ccncc1)C(=O)CCn1c(C)cc2ccccc21 read -9.21%. With COc1cccc(COCC(=O)N2CCCC(c3ccn[nH]3)C2)c1 (configuration not stated) the screen gave 10.33%. CCc1nc(CC(=O)NC(C#N)CC(C)C)cs1 (configuration not stated) read 33.51%. CC(C)N(Cc1ccc(Cl)c(Cl)c1)C(=O)Cn1cncn1 gave 9.08%. CN1CCN(C2CCN(CC(O)c3ccccc3F)CC2)C1=O (configuration not stated) read 31.36%. CNC(=O)C1CN(C)CCN(CCCOc2ccccc2F)C1 (configuration not stated) gave -6.846%.

CN1C(=O)CCCC12CCCN(Cc1nccs1)C2.O=C(O)C(F)(F)F (configuration not stated) read 1.755% and -1.904%. For Cc1noc(C)c1C(=O)N(C)C(C)c1ccncc1 (configuration not stated) the result was -2.874%. [H][C@@]12CCCO[C@]1([H])[C@H](OCC1CCOCC1)CN2C(=O)c1ccnnc1 gave 9.992%. c1cc(CN2CCC(c3nnc4n3CCCCC4)CC2)c2c(c1)OCO2 gave 15.37%.